Test results taken from article PMC8508829.
These are yes or no findings as the source states them, for the method shown. Binding seen in cells or lysates may run through a third protein. Some entries that bind do so weakly or less than the wild type.

Amino acid sequences for entries named in this document (tags omitted). A change or cut given only in a name is not applied to a line headed by its entry. Chains listed by the source or under a name are the forms on record and can include a tag or linker.
mutant NRASD12 (P01111, form named): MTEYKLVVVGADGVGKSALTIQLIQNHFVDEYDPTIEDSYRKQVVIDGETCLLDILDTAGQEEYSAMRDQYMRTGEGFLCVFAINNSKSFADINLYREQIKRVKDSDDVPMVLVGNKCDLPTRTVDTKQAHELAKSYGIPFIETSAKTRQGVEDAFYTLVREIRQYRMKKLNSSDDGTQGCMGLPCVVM

Biological target: mutant NRASD12 (UniProt P01111)
Assay: pull-down; GST-Raf1-Ras Binding Domain protein captures RAS-GTP from lysates of Sca-1+ enriched spleen cells of untreated and 75 mg/kg ABT-737 treated (day 33) HR-MDS mice; lysis in 50 mmol/L Tris pH 7.4, 1% NP40, 15% glycerol, 200 mmol/L NaCl, 5 mmol/L MgCl2; Western blot for RAS and hBCL-2

human BCL-2 (from UniProt P10415 1-239)
binding: binds
